Some of the results follow. The signal is at background level for most entries.
Legend:
Assay in all cases: fluorescence intensity of antibody binding to polysaccharide-coupled beads; higher = stronger binding
[1] = molecular target: pneumococcal polysaccharide Pn47A
[2] = molecular target: pneumococcal polysaccharide Pn47F
[3] = molecular target: pneumococcal polysaccharide Pn48
[4] = molecular target: pneumococcal polysaccharide Pn5
[5] = molecular target: pneumococcal polysaccharide Pn6A
[6] = molecular target: pneumococcal polysaccharide Pn6B
[7] = molecular target: pneumococcal polysaccharide Pn6C
[8] = molecular target: pneumococcal polysaccharide Pn6D
[9] = molecular target: pneumococcal polysaccharide Pn7A
[10] = antibody concentration 2337.65 ng/mL
[11] = antibody concentration 12500 ng/mL
[12] = antibody concentration 0.1 ng/mL
[13] = antibody concentration 0.534724 ng/mL
[14] = antibody concentration 2.8593 ng/mL
[15] = antibody concentration 15.2894 ng/mL
[16] = antibody concentration 81.7561 ng/mL
[17] = antibody concentration 437.17 ng/mL

B1: 4-173.2 (protein)
chain 1: QLQLQESGPGLVKPSETLSLTCAVSGGSINSNYWSWIRQPPGKGLDWIGRISGSGGSTDYNPSLKSRVTISTDTSKTQFSLKLRSVTAADTAVYYCGRGSYQIDYWGQGILVTVSS
chain 2: QAALTQPPSMSGSPGQSVTISCTGTSSDIGGYNRVSWYQQYPGKAPKLMIYEVSKRPSGVSDRFSGSKSGNTASLTISGLQAADEADYYCSSYAGSKALFGGGTRLTVL
[1]; [10]
  fluorescence intensity: 17 MFI
[1]; [11]
  fluorescence intensity: 30 MFI
[2]; [12]
  fluorescence intensity: 11.5 MFI
[2]; [13]
  fluorescence intensity: 11 MFI
[2]; [14]
  fluorescence intensity: 12.5 MFI
[2]; [15]
  fluorescence intensity: 11 MFI
[2]; [16]
  fluorescence intensity: 12 MFI
[2]; [17]
  fluorescence intensity: 12 MFI
[2]; [10]
  fluorescence intensity: 17 MFI
[2]; [11]
  fluorescence intensity: 69.8 MFI
[3]; [12]
  fluorescence intensity: 23 MFI
[3]; [13]
  fluorescence intensity: 23.2 MFI
[3]; [14]
  fluorescence intensity: 21.5 MFI
[3]; [15]
  fluorescence intensity: 22.5 MFI
[3]; [16]
  fluorescence intensity: 24 MFI
[3]; [17]
  fluorescence intensity: 25.5 MFI
[3]; [10]
  fluorescence intensity: 35 MFI
[3]; [11]
  fluorescence intensity: 47 MFI
[4]; [12]
  fluorescence intensity: 8 MFI
[4]; [13]
  fluorescence intensity: 9.5 MFI
[4]; [14]
  fluorescence intensity: 9.5 MFI
[4]; [15]
  fluorescence intensity: 9 MFI
[4]; [16]
  fluorescence intensity: 9 MFI
[4]; [17]
  fluorescence intensity: 10.8 MFI
[4]; [10]
  fluorescence intensity: 16.5 MFI
[4]; [11]
  fluorescence intensity: 103 MFI
[5]; [12]
  fluorescence intensity: 20.8 MFI
[5]; [13]
  fluorescence intensity: 21 MFI
[5]; [14]
  fluorescence intensity: 22 MFI
[5]; [15]
  fluorescence intensity: 22.8 MFI
[5]; [16]
  fluorescence intensity: 24.5 MFI
[5]; [17]
  fluorescence intensity: 25.5 MFI
[5]; [10]
  fluorescence intensity: 30.5 MFI
[5]; [11]
  fluorescence intensity: 42.2 MFI
[6]; [12]
  fluorescence intensity: 18.2 MFI
[6]; [13]
  fluorescence intensity: 19 MFI
[6]; [14]
  fluorescence intensity: 19.2 MFI
[6]; [15]
  fluorescence intensity: 19 MFI
[6]; [16]
  fluorescence intensity: 19 MFI
[6]; [17]
  fluorescence intensity: 22.8 MFI
[6]; [10]
  fluorescence intensity: 23 MFI
[6]; [11]
  fluorescence intensity: 35 MFI
[7]; [12]
  fluorescence intensity: 19.5 MFI
[7]; [13]
  fluorescence intensity: 18 MFI
[7]; [14]
  fluorescence intensity: 29 MFI
[7]; [15]
  fluorescence intensity: 40 MFI
[7]; [16]
  fluorescence intensity: 59 MFI
[7]; [17]
  fluorescence intensity: 49.8 MFI
[7]; [10]
  fluorescence intensity: 54.2 MFI
[7]; [11]
  fluorescence intensity: 76 MFI
[8]; [12]
  fluorescence intensity: 17.8 MFI
[8]; [13]
  fluorescence intensity: 16.8 MFI
[8]; [14]
  fluorescence intensity: 14.5 MFI
[8]; [15]
  fluorescence intensity: 15 MFI
[8]; [16]
  fluorescence intensity: 17.5 MFI
[8]; [17]
  fluorescence intensity: 17.5 MFI
[8]; [10]
  fluorescence intensity: 20.5 MFI
[8]; [11]
  fluorescence intensity: 31 MFI
[9]; [12]
  fluorescence intensity: 20.8 MFI
[9]; [13]
  fluorescence intensity: 18.5 MFI
[9]; [14]
  fluorescence intensity: 20 MFI
[9]; [15]
  fluorescence intensity: 20 MFI
[9]; [16]
  fluorescence intensity: 21 MFI
[9]; [17]
  fluorescence intensity: 23.2 MFI
[9]; [10]
  fluorescence intensity: 53 MFI
